Experimental data: PubChem BioAssay AID1508597 (Cure First, 2020)
Shown is a random part of the about 2,100 reagents, under one of the conditions tested. 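Calls flag viability under 80% in either arm, not effects specific to rucaparib; the reference for percent is not stated.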 Some reagents were tested in more than one well and are listed for each. Not stated in the record: the 100% reference.

- Assay: 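Genes whose silencing sensitises or protects ovarian cancer cells against rucaparib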 (primary screen)
- Cell system: human ovarian carcinoma lines grown from tumours: OCI-P5x (papillary serous) and OCI-C5x (clear cell)
- Reagent: siRNA pool against human genes, 1.25 pmol siRNA per well
- Duration: 72 h or 96 h, depending on the cell culture
- Treatment: rucaparib 20 µM (about IC30) or vehicle, present until read-out
- Rucaparib or vehicle: Rucaparib
- Cell line: OCI-P5x (serous)
- Measurement: 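ATP luminescence measured at 72 or 96 h according to the culture, then normalised and expressed as percent viability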
- Scale: viability, normalised: higher = more viable cells remaining
- Rule for the call: 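Active when normalised viability falls below 80 percent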
- Meaning of the calls: active = viability under 80%; inactive = viability 80% or more

no.	target	technical replicate	viability, normalised (%)	call
1	EID1	1	68.5	active
2	EID1	2	69.5	active
3	EID1	3	74.3	active
4	NPR2	1	114	inactive
5	NPR2	2	113	inactive
6	NPR2	3	90	inactive
7	CDC7	1	76.2	active
8	CDC7	2	82.1	inactive
9	CDC7	3	91.8	inactive
10	LCK	1	94.2	inactive
11	LCK	2	99.8	inactive
12	LCK	3	85.7	inactive
13	ELP3	1	67.4	active
14	ELP3	2	65.4	active
15	ELP3	3	56	active
16	ASH1L	1	76.3	active
17	ASH1L	2	63.8	active
18	ASH1L	3	47.1	active
19	MBD3	1	40.6	active
20	MBD3	2	44.1	active
21	MBD3	3	46.3	active
22	HDAC10	1	57.1	active
23	HDAC10	2	55.2	active
24	HDAC10	3	47	active

The list goes on, starting with the last 4 of the part before.
no.	target	technical replicate	viability, normalised (%)	call
21	MBD3	3	46.3	active
22	HDAC10	1	57.1	active
23	HDAC10	2	55.2	active
24	HDAC10	3	47	active
25	CECR2	1	89.4	inactive
26	CECR2	1	68.7	active
27	CECR2	2	67.7	active
28	CECR2	2	87.3	inactive
29	CECR2	3	68.1	active
30	CECR2	3	85.8	inactive
31	SMPD3	1	52.2	active
32	SMPD3	2	42.3	active
33	SMPD3	3	47.3	active
34	DMTF1	1	69.8	active
35	DMTF1	2	77.7	active
36	DMTF1	3	70	active
37	PAF1	1	71.9	active
38	PAF1	2	55.2	active
39	PAF1	3	82	inactive
40	PFKL	1	89.8	inactive
41	PFKL	2	122	inactive
42	PFKL	3	102	inactive
43	OARD1	1	55.3	active
44	OARD1	2	84.8	inactive
45	OARD1	3	72.5	active
46	TRIB2	1	70.9	active
47	TRIB2	2	81.3	inactive
48	TRIB2	3	76.5	active
49	IKBKB	1	74.1	active
50	IKBKB	2	75	active
51	IKBKB	3	66	active
52	APP	1	60.3	active
53	APP	2	67.1	active
54	APP	3	79	active
55	NUDT1	1	54.8	active
56	NUDT1	2	74.7	active
57	NUDT1	3	50.2	active
